Measured data: PubChem BioAssay AID1259405 (NCATS, 2018)

Aim: 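Silenced genes that increase secreted GFP made by CHO cells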 (primary screen)
System: Chinese hamster CHO-K1 ovary cells with stable secreted eGFP expression
Reagents: single siRNA against mouse genes, 0.8 pmol siRNA per well (2 µl of 400 nM stock)
Time to read-out: 3 days
Measured: 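Percent of the per-plate non-targeting control median for intracellular GFP per well by laser scanning cytometry and for cell viability by ATP luminescence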
Direction: GFP, % of control: higher = more GFP per well, higher productivity; viability (ATP), % of control: higher = more viable cells (more ATP)
Call rule: 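a knock-down is called active if GFP reaches 120% or more of non-targeting control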
Here is one part, drawn at random, of about 50,000 reagents. About 4,000 of them (8%) count as active. 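Mouse siRNA library applied to hamster cells; one well for each siRNA.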 Unmarked entries are inactive. The numbers tell different reagents against one gene apart. Reagent sequences are not shown.

gene | reagent | GFP, % of control | viability (ATP), % of control
Mplkip | 1 | 96.1 | 69.8
Mplkip | 2 | 109 | 89.8
Mplkip | 3 | 87.1 | 74.1
Pmm2 | 1 | 149 (active) | 132
Pmm2 | 2 | 80.8 | 73.2
Pmm2 | 3 | 76.7 | 89.1
Hdgf | 1 | 61.8 | 44.6
Hdgf | 2 | 88.9 | 68.3
Hdgf | 3 | 88.9 | 72
Sgk2 | 1 | 54.7 | 60.9
Gys1 | 1 | 128 (active) | 105
Gys1 | 2 | 77.4 | 68.3
Gys1 | 3 | 98 | 117
Slurp1 | 1 | 113 | 103
Slurp1 | 2 | 74.2 | 66.1
Sinhcaf | 1 | 89.6 | 70
Sinhcaf | 2 | 92.1 | 133
Sinhcaf | 3 | 114 | 118
Fgd1 | 1 | 77.6 | 108
Fgd1 | 2 | 91.6 | 55.7
Fgd1 | 3 | 120 | 82.7
Chmp4c | 1 | 61.3 | 65.7
Chmp4c | 2 | 52 | 47.9
Chmp4c | 3 | 60.3 | 77.9
Wnt4 | 1 | 61.5 | 44.8
Wnt4 | 2 | 52.5 | 55.6
Wnt4 | 3 | 44.9 | 52.7
Tfe3 | 1 | 113 | 89.3
Tfe3 | 2 | 76.1 | 76.8
Tfe3 | 3 | 65.5 | 89.3
Slc30a7 | 1 | 103 | 84.4
Slc30a7 | 2 | 76.2 | 63.2
Slc30a7 | 3 | 75.2 | 59.9
V1rg10 | 1 | 96.3 | 65.9
V1rg10 | 2 | 66 | 88.4
V1rg10 | 3 | 60.8 | 60.5
Asah2 | 1 | 89.3 | 90.1
Asah2 | 2 | 64.1 | 70.4
Asah2 | 3 | 64.6 | 86.4
Bahcc1 | 1 | 81.6 | 92.4
Bahcc1 | 2 | 116 | 92.7
Bahcc1 | 3 | 75.8 | 77.1
Vmn2r37 | 1 | 64.8 | 77.2
Vmn2r37 | 2 | 67.6 | 85.9
Vmn2r37 | 3 | 73.6 | 71.9
Rab4b | 1 | 49.8 | 70
Rab4b | 2 | 65 | 75.1
Rab4b | 3 | 130 (active) | 103
Susd2 | 1 | 144 (active) | 112
Susd2 | 2 | 45.9 | 55.9
Klf4 | 1 | 110 | 130
Klf4 | 2 | 70 | 67.7
Klf4 | 3 | 61.6 | 84.4
Rem2 | 1 | 80.4 | 56.9
Rem2 | 2 | 75.6 | 63.1
Rem2 | 3 | 31.9 | 58
Tex13b | 1 | 76.3 | 87.1
Tex13b | 2 | 68.9 | 102
Tex13b | 3 | 76.1 | 117
Mfn2 | 1 | 112 | 90.6
Mfn2 | 2 | 24.9 | 34.7
Mfn2 | 3 | 95.3 | 84.8
Far2 | 1 | 77.2 | 117
Far2 | 2 | 75.2 | 92.1
Far2 | 3 | 56.8 | 53.1
Pcdhac2 | 1 | 59.9 | 63.3
Pcdhac2 | 2 | 54.2 | 66.5
Ttll3 | 1 | 74.1 | 40.6
Ttll3 | 2 | 43.9 | 52.5
Ttll3 | 3 | 137 (active) | 63.8
Git2 | 1 | 177 (active) | 116
Git2 | 2 | 73.8 | 60.1
Git2 | 3 | 81.7 | 91.9
Dio1 | 1 | 61.4 | 77.1
Dio1 | 2 | 53.8 | 44.4
Dio1 | 3 | 99.3 | 81.2
4833408A19Rik | 1 | 61.8 | 71.6
4833408A19Rik | 2 | 57.4 | 68.6
4833408A19Rik | 3 | 81.1 | 77.7
Elapor2 | 1 | 67.5 | 75.5
Elapor2 | 2 | 80.5 | 67.2
Elapor2 | 3 | 86.1 | 108
Slc39a5 | 1 | 192 (active) | 30
Slc39a5 | 2 | 86.4 | 54.2
Slc39a5 | 3 | 69.1 | 59.4

Looked up above:
Value of Sinhcaf #2 under “GFP, % of control”: 92.1
Under “GFP, % of control”, Wnt4 #1 is entered as 61.5
Under “GFP, % of control”, Sinhcaf #3 has 114
Under “viability (ATP), % of control”, Slc39a5 #2 reads 54.2
Under “viability (ATP), % of control”, Tfe3 #3 has 89.3
Under “GFP, % of control”, Far2 #1 reads 77.2
